These are yes or no findings as the source states them, for the method shown. Binding seen in cells or lysates may run through a third protein. Some entries that bind do so weakly or less than the wild type. Where a sequence is shown, tags or fusion partners need not be part of it.
Legend:
[1] = molecular target: T1, glucose transporter-4 (Glut-4) (mouse (endogenous in mouse heart)) (UniProt P14142); assay: co-IP; mouse heart homogenates (pre- and post-ischemia, ex vivo 45-min ischemia) in NP40 lysis buffer, pre-cleared with protein A/G-agarose, 1 ug primary antibody (anti-Glut-4 or anti-Tsg101) at 4 °C overnight, 5 washes, immunoblot for the partner
T1 sequence: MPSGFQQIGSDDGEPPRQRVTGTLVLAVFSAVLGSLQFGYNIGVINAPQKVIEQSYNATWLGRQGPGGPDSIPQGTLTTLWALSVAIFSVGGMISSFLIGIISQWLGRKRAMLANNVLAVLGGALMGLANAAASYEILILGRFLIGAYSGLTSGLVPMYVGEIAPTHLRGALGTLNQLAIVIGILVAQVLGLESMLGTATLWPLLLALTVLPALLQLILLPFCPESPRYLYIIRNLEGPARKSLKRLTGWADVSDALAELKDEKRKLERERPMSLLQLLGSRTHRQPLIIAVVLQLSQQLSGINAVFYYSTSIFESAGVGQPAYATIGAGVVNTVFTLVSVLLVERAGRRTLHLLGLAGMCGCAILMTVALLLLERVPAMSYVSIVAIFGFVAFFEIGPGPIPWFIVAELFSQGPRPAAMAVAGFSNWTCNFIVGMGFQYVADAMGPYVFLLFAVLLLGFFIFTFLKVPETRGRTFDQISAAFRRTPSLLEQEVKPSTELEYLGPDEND

[2] = molecular target: T2, Tumor susceptibility gene 101 (Tsg101) (mouse (endogenous in mouse heart)) (UniProt Q61187); assay: as above
T2 sequence: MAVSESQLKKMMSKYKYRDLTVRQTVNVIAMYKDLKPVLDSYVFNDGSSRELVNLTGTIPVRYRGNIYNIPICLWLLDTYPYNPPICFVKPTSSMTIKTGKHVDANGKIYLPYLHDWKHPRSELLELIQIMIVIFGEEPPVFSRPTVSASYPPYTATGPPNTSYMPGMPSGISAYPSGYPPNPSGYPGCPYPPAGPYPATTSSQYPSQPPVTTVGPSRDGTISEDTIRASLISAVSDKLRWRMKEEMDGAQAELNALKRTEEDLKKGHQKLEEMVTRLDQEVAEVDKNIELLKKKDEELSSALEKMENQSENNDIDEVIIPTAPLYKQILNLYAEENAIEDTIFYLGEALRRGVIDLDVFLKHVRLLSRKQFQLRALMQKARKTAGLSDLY

| Binder | binding [1] | binding [2] |
| --- | --- | --- |
| Tumor susceptibility gene 101 (Tsg101) (protein, UniProt Q61187 1-391) MAVSESQLKKMMSKYKYRDLTVRQTVNVIAMYKDLKPVLDSYVFNDGSSRELVNLTGTIPVRYRGNIYNIPICLWLLDTYPYNPPICFVKPTSSMTIKTGKHVDANGKIYLPYLHDWKHPRSELLELIQIMIVIFGEEPPVFSRPTVSASYPPYTATGPPNTSYMPGMPSGISAYPSGYPPNPSGYPGCPYPPAGPYPATTSSQYPSQPPVTTVGPSRDGTISEDTIRASLISAVSDKLRWRMKEEMDGAQAELNALKRTEEDLKKGHQKLEEMVTRLDQEVAEVDKNIELLKKKDEELSSALEKMENQSENNDIDEVIIPTAPLYKQILNLYAEENAIEDTIFYLGEALRRGVIDLDVFLKHVRLLSRKQFQLRALMQKARKTAGLSDLY | binds | – |
| Tsg101 in hearts of mice with heart-specific overexpression of Tsg101 (Tsg101-TG) (protein, UniProt Q61187 1-391) MAVSESQLKKMMSKYKYRDLTVRQTVNVIAMYKDLKPVLDSYVFNDGSSRELVNLTGTIPVRYRGNIYNIPICLWLLDTYPYNPPICFVKPTSSMTIKTGKHVDANGKIYLPYLHDWKHPRSELLELIQIMIVIFGEEPPVFSRPTVSASYPPYTATGPPNTSYMPGMPSGISAYPSGYPPNPSGYPGCPYPPAGPYPATTSSQYPSQPPVTTVGPSRDGTISEDTIRASLISAVSDKLRWRMKEEMDGAQAELNALKRTEEDLKKGHQKLEEMVTRLDQEVAEVDKNIELLKKKDEELSSALEKMENQSENNDIDEVIIPTAPLYKQILNLYAEENAIEDTIFYLGEALRRGVIDLDVFLKHVRLLSRKQFQLRALMQKARKTAGLSDLY | binds | – |
| glucose transporter-4 (Glut-4) (protein, UniProt P14142 1-509) MPSGFQQIGSDDGEPPRQRVTGTLVLAVFSAVLGSLQFGYNIGVINAPQKVIEQSYNATWLGRQGPGGPDSIPQGTLTTLWALSVAIFSVGGMISSFLIGIISQWLGRKRAMLANNVLAVLGGALMGLANAAASYEILILGRFLIGAYSGLTSGLVPMYVGEIAPTHLRGALGTLNQLAIVIGILVAQVLGLESMLGTATLWPLLLALTVLPALLQLILLPFCPESPRYLYIIRNLEGPARKSLKRLTGWADVSDALAELKDEKRKLERERPMSLLQLLGSRTHRQPLIIAVVLQLSQQLSGINAVFYYSTSIFESAGVGQPAYATIGAGVVNTVFTLVSVLLVERAGRRTLHLLGLAGMCGCAILMTVALLLLERVPAMSYVSIVAIFGFVAFFEIGPGPIPWFIVAELFSQGPRPAAMAVAGFSNWTCNFIVGMGFQYVADAMGPYVFLLFAVLLLGFFIFTFLKVPETRGRTFDQISAAFRRTPSLLEQEVKPSTELEYLGPDEND | – | binds |

From article PMC7565110
